According to paper PMC9005747, “Application of per-Residue Energy Decomposition to Design Peptide Inhibitors of PSD95 GK Domain” (Frontiers in Molecular Biosciences, 2022):
Results are given in words; binding and its absence hold for the method and conditions named. Some results given as binding are weak or reduced against the parent protein; the word gives no strength.

By UniProt entry, the sequences of proteins in these tests, tags left out. Residues count along the entry.
UniProt P31016, residues 531-713: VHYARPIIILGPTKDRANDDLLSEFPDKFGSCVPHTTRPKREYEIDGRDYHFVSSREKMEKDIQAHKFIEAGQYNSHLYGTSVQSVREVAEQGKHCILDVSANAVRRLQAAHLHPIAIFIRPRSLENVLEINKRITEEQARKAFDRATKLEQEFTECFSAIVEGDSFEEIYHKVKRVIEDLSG

B1: free-labeled (unlabeled) SAPAP peptide AARRE(pS)YLKATQ (peptide)
peptide: AARRESYLKATQ
modifications: phosphoserine (pS) at the sixth residue

How the values were obtained:
[1] = molecular target: T1, FITC-labeled SAPAP peptide FITC-AARRE(pS)YLKATQ; experiment: fluorescence polarisation; competition: 10 nM FITC-SAPAP, 2 uM PSD95 GK, peptide inhibitors serially diluted (8-point curve); 50 mM Tris, 100 mM NaCl, pH 7.5; 1-h incubation; Ki from IC50 by the formula of Nikolovska-Coleska et al.; both purified
T1 sequence (peptide, phosphoserine (pS) at the sixth residue; FITC on the N-terminus): AARRESYLKATQ

[2] = molecular target: His6-tagged PSD95 GK domain (a.a. 531-713) (UniProt P31016); experiment: as above

Molecule	binding [1]	binding [2]
His6-tagged PSD95 GK domain (a.a. 531-713) (from UniProt P31016 531-713) (domain or fragment)	binds	
B1		binds
